Source: PubChem BioAssay AID493246 (Drosophila RNAi Screening Center, 2011)
The screen tested about 21,000 reagents; below is an unselected part of those that have a named target and a result. Of all reagents, 429 (2%) got an active call. 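Values are raw and not normalised between plates; calls rest on per-plate z-scores that were not deposited.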 A number with no mark means an inactive call. The numbers tell different reagents against one gene apart. A plus sign joins genes that one reagent is predicted to hit. Not stated in the record: the amount of reagent, the time to read-out.

- Assay: 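Genes fly cells need to grow and stay alive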 (primary screen)
- Cell system: Drosophila Kc and S2R+ cells
- Reagent: long dsRNA against Drosophila genes
- Measured: 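Cell number per well after knock-down, printed as raw plate values; calls were based on per-plate z-scores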
- Direction: Kc cell number and S2R+ cell number: higher = more cells remaining
- Hit rule: 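Counted as a hit if cell number falls by a z-score of at least 3 within its plate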

no.	target	reagent	Kc cell number, rep 1	Kc cell number, rep 2	S2R+ cell number, rep 1	S2R+ cell number, rep 2
1	RhoGAP15B	1	1.38e6	1.44e6	1.06e6	1.13e6
2	RhoGAP15B	2	1.37e6	1.40e6	1.09e6	1.18e6
3	Nplp2	1	1.40e6	1.27e6	1.31e6	1.41e6
4	cutlet	1	1.75e6	1.80e6	1.25e6	1.43e6
5	CG13408	1	1.39e6	1.41e6	1.00e6	1.07e6
6	CG13408	2	1.41e6	1.37e6	1.17e6	1.26e6
7	mRpS21	1	1.42e6	1.55e6	1.05e6	1.15e6
8	CG5653	1	1.43e6	1.51e6	1.11e6	1.17e6
9	B52	1	1.52e6	1.54e6	1.21e6	1.24e6
10	RhoGAP5A	1	6.30e5		8.50e5	
11	CG33770	1	1.70e6	1.83e6	1.42e6	1.47e6
12	Vsx1	1	9.02e5 (active)	9.13e5	3.80e5	4.94e5
13	Vsx1	2	1.49e6	1.50e6	7.72e5	8.90e5
14	RpL10	1	8.40e5 (active)	9.11e5	7.47e5	8.44e5
15	Cpr65Eb	1	1.27e6	1.18e6	1.25e6	1.21e6
16	Sec31	1	1.44e6	1.45e6	1.19e6	1.29e6
17	CG1142	1	1.68e6	1.90e6	1.21e6	1.33e6
18	Ugt35E1	1	1.71e6	1.60e6	1.26e6	1.39e6
19	CG17359	1	1.66e6	1.59e6	1.18e6	1.31e6
20	Pcyt1	1	1.40e6	1.45e6	1.10e6	1.12e6
21	CG17819	1	1.38e6	1.55e6	1.01e6	1.06e6
22	Tsp42Ep	1	1.51e6	1.66e6	1.15e6	1.22e6
23	CG9902	1	1.57e6	1.56e6	1.06e6	1.15e6
24	inaE	1	1.64e6	1.66e6	1.06e6	1.19e6
25	inaE	2	5.33e5		8.08e5	
26	inaE	3	1.58e6	1.59e6	1.09e6	1.13e6
27	inaE	4	1.65e6	1.63e6	1.03e6	1.12e6
28	reb	1	1.67e6	1.64e6	1.20e6	1.39e6
29	CG15517	1	1.52e6	1.54e6	1.08e6	1.16e6
30	CG15506	1	1.46e6	1.44e6	9.90e5	1.06e6
31	Nepl8	1	1.65e6	1.72e6	1.30e6	1.48e6
32	DMAP1	1	1.04e6	1.12e6	8.96e5	1.01e6
33	l(1)sc	1	1.57e6	1.58e6	1.01e6	1.16e6
34	Rab35	1	1.55e6	1.60e6	9.71e5	1.06e6
35	His1:CG33816 + His1:CG33828 + His1:CG33819 + 21 more	1	1.33e6	1.34e6	1.06e6	1.23e6
36	CG30001	1	1.52e6	1.58e6	9.55e5	1.12e6
37	COX7C	1	1.29e6	1.28e6	9.09e5	1.02e6
38	Ac13E	1	1.66e6	1.68e6	1.21e6	1.25e6
39	Grip91	1	5.92e5		9.09e5	
40	BtbVII	1	1.26e6	1.38e6	9.86e5	1.15e6
41	BtbVII	2	1.06e6	1.16e6	1.42e6	6.75e5
42	CG11670	1	1.50e6	1.52e6	1.11e6	1.25e6
43	Trpm	1	1.21e6	1.19e6	8.66e5	7.76e5
44	Fitm	1	1.44e6	1.47e6	1.06e6	9.75e5
45	CG9130 + CG9133	1	1.69e6	1.67e6	1.20e6	1.31e6
46	CG9130 + CG9133	2	1.36e6	1.45e6	1.04e6	1.08e6
47	Polr3I	1	1.56e6	1.64e6	1.03e6	1.16e6
48	CG11695	1	1.58e6	1.53e6	1.02e6	1.10e6
49	Srg1	1	1.75e6	1.72e6	1.01e6	1.15e6
50	CG13739	1	1.43e6 (active)	1.41e6	6.26e5	7.22e5
51	CG34273	1	1.41e6	1.62e6	9.99e5	1.17e6
52	Mpi	1	1.55e6	1.61e6	1.36e6	1.42e6
53	Pms2	1	1.08e6	1.04e6	7.72e5	6.49e5
54	Fcp3C	1	1.50e6	1.51e6	1.07e6	1.22e6
55	Echs1	1	1.75e6	1.93e6	1.42e6	1.52e6
56	CG8945	1	1.44e6	1.47e6	1.06e6	1.17e6
57	CG8945	2	1.50e6	1.49e6	1.13e6	1.18e6
58	MED27	1	1.62e6	1.82e6	1.38e6	1.49e6
59	CG12581	1	1.48e6	1.51e6	1.33e6	1.35e6
60	CG12581	2	1.36e6	1.32e6	1.30e6	1.38e6

Laid out differently: results already given
target | reagent | Kc cell number, rep 1 | Kc cell number, rep 2 | S2R+ cell number, rep 1 | S2R+ cell number, rep 2
B52 | 1 | 1.52e6 | 1.54e6 | 1.21e6 | 1.24e6
RhoGAP5A | 1 | 6.30e5 | – | 8.50e5 | –
CG33770 | 1 | 1.70e6 | 1.83e6 | 1.42e6 | 1.47e6
Vsx1 | 1 | 9.02e5 (active) | 9.13e5 | 3.80e5 | 4.94e5
Vsx1 | 2 | 1.49e6 | 1.50e6 | 7.72e5 | 8.90e5
RpL10 | 1 | 8.40e5 (active) | 9.11e5 | 7.47e5 | 8.44e5
Cpr65Eb | 1 | 1.27e6 | 1.18e6 | 1.25e6 | 1.21e6
Sec31 | 1 | 1.44e6 | 1.45e6 | 1.19e6 | 1.29e6
CG1142 | 1 | 1.68e6 | 1.90e6 | 1.21e6 | 1.33e6
Ugt35E1 | 1 | 1.71e6 | 1.60e6 | 1.26e6 | 1.39e6
